From PubChem BioAssay AID540276 (National Center for Advancing Translational Sciences (NCATS), 2011)
The whole screen tested about 300,000 compounds, of which about 5,400 (1.8%) were called active. The shares of active, inactive and inconclusive entries below differ from those in the screen. The call rests on the fitted dose curve; tested in HEK293 cells. Potencies beside an inconclusive call are fits to weak or partial responses and may not hold up.

Test: qHTS for inhibitors of binding or entry into cells for Marburg Virus
Details: Marburg virus pseudotyped entry inhibition, cell reporter; activity change, negative = inhibition: at 37.8 µM (top of the series) unless noted
On the % scale 0 is the no-effect control and ±100 the full control effect; potency means the concentration at half of the fitted maximal effect.

Structure (SMILES) | Potency | activity change, negative = inhibition
Oc1ccc(Cl)cc1Nc1nc2ccccc2n2cnnc12 | inconclusive: 5.62 µM [activator, single point] | –
O=C(c1ccco1)N1CCN(S(=O)(=O)N2CCOCC2)CC1 | inconclusive: 29.1 µM [activator, partial curve, poor fit] | –
CCc1nc2ccccc2c(C(=O)OCC(=O)NCc2ccc3c(c2)OCO3)c1C | – | inactive: 5.08%
Cc1ccc(-n2nnnc2SCC(=O)Nc2ccc3c(c2)OCCO3)cc1C | inconclusive: 2.82 µM [activator, full curve] | –
O=C(c1ccco1)N1CCN(C(=O)c2sccc2-c2ccccc2)CC1 | inconclusive: 0.92 µM [inhibitor, full curve] | –
O=C(N/N=C/c1ccc[nH]1)c1ccccc1OCc1ccccc1Cl | – | inactive: -6.16% [at 46.1 µM]
Cc1ccc(S(=O)(=O)c2nc(-c3ccc(Cl)cc3)oc2N2CCCCCC2)cc1 | inconclusive: 4.47 µM [inhibitor, single point] | –
O=c1c2cc(-c3ccccc3)sc2ncn1/N=C/c1ccco1 | inconclusive: 3.55 µM [activator, partial curve, poor fit] | –
CCCNC(=O)c1cc(-c2ccc(OC)cc2)on1 | active: 10.3 µM | –
c1ccc2oc(-c3ccc(Nc4nc(N5CCOCC5)nc(N5CCOCC5)n4)cc3)nc2c1 | inconclusive: 2.82 µM [inhibitor, single point] | –
CCNc1nc2ccccc2[nH]1 | inconclusive: 3.55 µM [activator, partial curve, poor fit] | –
OCC1(CCc2ccccc2)CCN(Cc2ccc(OC(F)F)cc2)CC1 | inconclusive: 35.5 µM [inhibitor, single point] | –
CCCc1cc(C(=O)NNC(=S)NC2CCCCC2)cs1 | – | inactive: 12.9% [at 46.1 µM]
COc1ccc(-c2nc(CSCC(=O)N3CCC(C(N)=O)CC3)c(C)o2)cc1OC | – | inactive: -3.11%
CCN(CC)S(=O)(=O)c1ccc(NS(=O)(=O)c2ccc(O)c([N+](=O)[O-])c2)cc1 | inconclusive: 0.199 µM [activator, single point] | –
Cc1ccc(-c2c(C(=O)NCCc3ccc(Cl)cc3)oc(=O)c3ccccc23)cc1 | inconclusive: 31.6 µM [inhibitor, single point] | –
CC1(c2ccccc2)CC(C)(C)N2C(=O)C3(C(C#N)=C(N)Oc4cc(O)ccc43)c3cccc1c32 (centres undefined) | inconclusive: 29.1 µM [inhibitor, single point] | –
CC(C)Cc1ccc(CN2CCCC(NC(=O)c3ccoc3)C2)cc1 (centres undefined) | inconclusive: 11.2 µM [inhibitor, partial curve, poor fit] | –
Cc1sc2nc(C3CCCCC3)nc(SCC(=O)N3CC(=O)Nc4ccccc43)c2c1C | inconclusive: 14.6 µM [inhibitor, partial curve, poor fit] | –
CC(NC(=O)C1CSC2(C)CCC(=O)N12)c1ccccc1Cl (centres undefined) | inconclusive: 11.2 µM [inhibitor, partial curve, poor fit] | –
COc1ccc(CCC(=O)N2CCCc3ccccc32)cc1 | inconclusive: 10 µM [inhibitor, partial curve, poor fit] | –
COc1ccc(-n2c(SC)nc3sc4c(c3c2=O)CCN(C)C4)cc1 | – | inactive: -10.1% [at 46.1 µM]

Structure (SMILES) | Potency | activity change, negative = inhibition
COc1ccc(NC(=O)c2ccc(C(=O)c3cc(OC)ccc3OC)cc2)cc1 | – | inactive: 8.58%
CN(C)CCNC(=O)C1CCN(S(=O)(=O)c2ccc3ccccc3c2)CC1 | inconclusive: 35.5 µM [inhibitor, single point] | –
O=C(NCc1ccccc1)c1ccc2ccccc2n1 | – | inactive: -1.29% [at 46.1 µM]
CCOC(=O)NC1(C(F)(F)F)NC(=O)N(Cc2ccco2)C1=O (centres undefined) | – | inactive: 7.26%
O=C(c1ccc2c(Cl)c3c(nc2c1)CCCC3)N1CCN(c2cccc(Cl)c2)CC1 | inconclusive: 0.562 µM [activator, full curve, poor fit] | –
Cc1ccc(-n2c(Cn3nc(C(F)F)cc3C(F)F)n[nH]c2=S)cc1 | – | inactive: 6.26%
CCN(CC)c1nc(Nc2ccccc2)nc(Oc2ccc(C(=O)OC)cc2)n1 | inconclusive: 29.1 µM [inhibitor, single point] | –
N=c1n(CCc2ccccc2)c2ccccc2n1Cc1ccccc1F | active: 5.17 µM | –
O=c1c2c3c(sc2n2cnnc2n1CCc1ccccc1)CCCC3 | inconclusive: 3.66 µM [activator, full curve, poor fit] | –
CCN(CC)S(=O)(=O)c1ccc2c(c1)nc(CCC(=O)OCC(=O)Nc1c(F)cccc1F)n2C | inconclusive: 35.5 µM [activator, single point] | –
CC(/C=N/NC(=O)Cc1cccs1)=C\c1ccco1 | – | inactive: -7.58%
COc1ccc([N+](=O)[O-])cc1NC(=O)CSc1nc(C)cc(C)n1 | inconclusive: 5.62 µM [activator, single point] | –
CCN(c1ccccc1)S(=O)(=O)c1ccc(C(=O)Nc2ccccc2OC)cc1 | inconclusive: 10 µM [inhibitor, partial curve] | –
COc1ccc(NC(C)=O)cc1S(=O)(=O)NC(Cc1ccccc1)C(=O)NCc1ccccc1C (centres undefined) | – | inactive: -0.297% [at 46.1 µM]
Cc1ccc(S(=O)(=O)NC(=NC2CCCCC2)c2ccccc2)cc1 | inconclusive: 4.47 µM [inhibitor, partial curve] | –
Fc1ccccc1-n1[nH]nnc1=S | inconclusive: 29.1 µM [activator, single point] | –
N=c1c(C(=O)NCC2CCCO2)cc2c(=O)n3ccccc3nc2n1Cc1ccccc1Cl (centres undefined) | active: 11.2 µM | –
FC(F)Oc1ccc(NC(=S)NC2CCCCCCC2)cc1 | inconclusive: 11.2 µM [inhibitor, partial curve, poor fit] | –
O=C(COc1cccnc1[N+](=O)[O-])Nc1cccc(Br)c1 | inconclusive: 35.5 µM [activator, single point] | –
CC(C)(C)NC(=O)NC(=O)COc1ccc(Br)cc1Br | inconclusive: 5.8 µM [inhibitor, full curve, poor fit] | –
Cc1noc(C)c1S(=O)(=O)N1CCCC(C(=O)NCCC2=CCCCC2)C1 (centres undefined) | – | inactive: -14.1%
O=C(CSc1nnc(-c2ccncc2)n1Cc1ccco1)Nc1nc(-c2ccccc2)cs1 | inconclusive: 12.6 µM [inhibitor, partial curve, poor fit] | –

Ordered by molecular weight (falling): three of the compounds above.
Structure (SMILES) | Potency | activity change, negative = inhibition
Cc1ccc(-n2c(Cn3nc(C(F)F)cc3C(F)F)n[nH]c2=S)cc1 | – | inactive: 6.26%
O=c1c2c3c(sc2n2cnnc2n1CCc1ccccc1)CCCC3 | inconclusive: 3.66 µM [activator, full curve, poor fit] | –
CC(/C=N/NC(=O)Cc1cccs1)=C\c1ccco1 | – | inactive: -7.58%
